Data taken from PubChem BioAssay AID248 (DTP/NCI, 2004).
The list does not hold the whole screen: it gathers tests that were run many times, whatever their T/C, doses with no T/C, and many T/C values between a quarter and a half above the control. Other doses and runs of a compound stand elsewhere. T/C gives the treated animals as a percentage of the vehicle group. Some doses have a count of surviving animals in place of a T/C: the source files T/C as zero there, which appears to mark a toxic dose or a test without result, not a measured value. Some doses without a T/C left all or most animals alive at the check, yet need not have been tolerated: the source hardly ever lists a survival T/C far under the control, and the zero likely stands for such cases as well. Counts of survivors are from the toxicity check (mostly the fifth day) where no day follows; animals may have died later. Schedules are NCI's codes, read here as Q, the interval in days (D) or hours (H), X, the number of doses. Some schedules carry Z or #; the key to these is not given. Signs of the kind (2×) say how often a value occurs here. Some molecules as drawn cover several salts, stereoisomers or complexes of the source; a dose is that of the sample tested. For survival time, this PubChem deposit counts one and a half times the control or more as active, and values a quarter to a half above the control carry no call in these data; other NCI protocols may use other cut-offs.

System: L1210 leukemia ip in BDF1 mice, survival T/C
Assay: NCI In Vivo Anticancer Drug Screen. Data for tumor model L1210 Leukemia (intraperitoneal) in B6D2F1 (BDF1) mice
Conditions: T/C endpoint: mean survival time, higher T/C = longer survival
[1] = dose: 400.0 mg/kg/injection, schedule: Q01DX009 (ip), vehicle: Klucel (hydroxypropylcellulose) (HPC)
[2] = dose: 400.0 mg/kg/injection, schedule: Q04DX003 (ip), vehicle: saline with Tween-80
[3] = dose: 100.0 mg/kg/injection, schedule: Q04DX003 (ip), vehicle: saline with Tween-80
[4] = dose: 100.0 mg/kg/injection, schedule: Q04DX003 (ip), vehicle: Klucel (hydroxypropylcellulose) (HPC)
[5] = dose: 200.0 mg/kg/injection, schedule: Q04DX003 (ip), vehicle: Klucel (hydroxypropylcellulose) (HPC)
[6] = dose: 400.0 mg/kg/injection, schedule: Q04DX003 (ip), vehicle: Klucel (hydroxypropylcellulose) (HPC)
[7] = dose: 400.0 mg/kg/injection, schedule: Q01DX009 (ip), vehicle: saline
[8] = dose: 400.0 mg/kg/injection, schedule: Q04DX002 (ip), vehicle: Klucel (hydroxypropylcellulose) (HPC)

CCC(=O)Nc1ccc(C)cc1C
survivor count [1]: 2 of 6

Cc1ccc(OCC(=O)O)c(Cl)c1
survivor count [1]: 1 of 6

CC(C)c1oc(=O)cc2c1[C@@H](O)[C@H]1OC(=O)[C@@]3(C)[C@@H](O)[C@H]4O[C@H]4[C@@]2(C)[C@@H]13
survivor count (dose: 80.0 mg/kg/injection, schedule: Q01DX001 (ip), vehicle: steroid suspending solution): 0 of 6
survivor count (dose: 100.0 mg/kg/injection, schedule: Q01DX001 (ip), vehicle: steroid suspending solution): 0 of 6
survivor count (dose: 200.0 mg/kg/injection, schedule: Q01DX001 (ip), vehicle: steroid suspending solution): 0 of 6
survivor count (dose: 400.0 mg/kg/injection, schedule: Q01DX001 (ip), vehicle: steroid suspending solution): 0 of 6

C=CCOC(=O)c1ccccc1N
survivor count (dose: 400.0 mg/kg/injection, schedule: Q01DX009 (ip), vehicle: saline with Tween-80): 0 of 6
survivor count [2]: 0 of 6

C=CCc1ccc(OC(=O)Nc2ccc(C(=O)OCC)cc2)c(OC)c1
survivor count [1]: 6 of 6

CC(=O)CC(=O)Nc1cc(Cl)c(NC(=O)CC(C)=O)cc1Cl
T/C [3]: 125 % of control

CN=C(NC)c1ccc(NC(=NC)c2ccc(C(=NC)Nc3ccc(C(=NC)NC)cc3)cc2)cc1
survivor count (dose: 10.0 mg/kg/injection, schedule: Q01DX Z (ip), vehicle: saline): 1 of 6
survivor count (dose: 15.0 mg/kg/injection, schedule: Q01DX Z (ip), vehicle: saline): 0 of 6
survivor count (dose: 22.0 mg/kg/injection, schedule: Q01DX Z (ip), vehicle: saline): 0 of 6

COc1cc(C(C)=O)ccc1OS(C)(=O)=O
survivor count [4]: 6 of 6
survivor count [5]: 0 of 6
survivor count [6]: 0 of 6

CSC(c1ccccc1)=[N+]1CCOCC1
survivor count [6]: 6 of 6

CN(C)CC1CCC/C(=C\C=C\c2ccccc2)C1=O (stereo not drawn)
survivor count [4]: 5 of 6
survivor count [5]: 1 of 6
survivor count [6]: 0 of 6

ClC/C=C/C[P+](c1ccccc1)(c1ccccc1)c1ccccc1
survivor count (dose: 12.5 mg/kg/injection, schedule: Q01DX009 (ip), vehicle: saline): 0 of 6
survivor count (dose: 25.0 mg/kg/injection, schedule: Q01DX009 (ip), vehicle: saline): 0 of 6
survivor count (dose: 50.0 mg/kg/injection, schedule: Q01DX009 (ip), vehicle: saline): 0 of 6
survivor count (dose: 100.0 mg/kg/injection, schedule: Q01DX009 (ip), vehicle: saline): 0 of 6
survivor count (dose: 200.0 mg/kg/injection, schedule: Q01DX009 (ip), vehicle: saline): 0 of 6
survivor count [7]: 0 of 6

O=C(NCCCNC(=O)Nc1cccc(C2=NCCCN2)c1)Nc1cccc(C2=NCCCN2)c1
survivor count (dose: 4.0 mg/kg/injection, schedule: Q01DX Z (ip), vehicle: carboxymethylcellulose (CMC)): 0 of 6

CN1C(=O)C(Cl)=C(Cl)C1=O
survivor count (dose: 6.25 mg/kg/injection, schedule: Q04DX003 (ip), vehicle: saline with Tween-80): 5 of 6
survivor count (dose: 12.5 mg/kg/injection, schedule: Q04DX003 (ip), vehicle: saline with Tween-80): 2 of 6
survivor count (dose: 25.0 mg/kg/injection, schedule: Q04DX003 (ip), vehicle: saline with Tween-80): 0 of 6 (2×)
survivor count (dose: 50.0 mg/kg/injection, schedule: Q04DX003 (ip), vehicle: saline with Tween-80): 0 of 6
survivor count [3]: 0 of 6
survivor count (dose: 200.0 mg/kg/injection, schedule: Q04DX003 (ip), vehicle: saline with Tween-80): 0 of 6
survivor count [2]: 0 of 6

O=S(=O)(NO)c1cccc(S(=O)(=O)NO)c1
survivor count [7]: 6 of 6

Cc1ccccc1S(=O)(=O)NC1c2ccccc2Oc2ccccc21
survivor count (dose: 150.0 mg/kg/injection, schedule: Q01DX009 (ip), vehicle: saline): 6 of 6
survivor count (dose: 300.0 mg/kg/injection, schedule: Q01DX009 (ip), vehicle: saline): 6 of 6

O=C(Nc1ccc(C2=NCCN2)cc1)c1ccc(Cl)c(C(=O)Nc2ccc(C3=NCCN3)cc2)c1
survivor count (dose: 1.87 mg/kg/injection, schedule: Q01DX Z (ip), vehicle: water): 0 of 6
survivor count (dose: 60.0 mg/kg/injection, schedule: Q01DX Z (ip), vehicle: saline): 0 of 6
survivor count (dose: 120.0 mg/kg/injection, schedule: Q01DX Z (ip), vehicle: saline): 0 of 6 (2×)

CC12CCC(O)CC1=CCC1C2CCC2(C)c3nc(C#N)c(=N)n(O)c3CC12 (stereo not drawn)
survivor count [8]: 3 of 3

N#CCCn1c(=O)n(CCC#N)c(=O)n(CCC#N)c1=O
survivor count (dose: 100.0 mg/kg/injection, schedule: Q04DX002 (ip), vehicle: Klucel (hydroxypropylcellulose) (HPC)): 1 of 3
survivor count (dose: 200.0 mg/kg/injection, schedule: Q04DX002 (ip), vehicle: Klucel (hydroxypropylcellulose) (HPC)): 3 of 3
survivor count [8]: 3 of 3

C/C(=C\c1ccc(O)cc1)[N+](=O)[O-]
survivor count (dose: 400.0 mg/kg/injection, schedule: Q04DX003 (ip), vehicle: acetone): 0 of 6

COc1ccc(-c2nnc(-c3ccc(OC)c(Cl)c3)nn2)cc1Cl
survivor count (dose: 50.0 mg/kg/injection, schedule: Q01DX009 (ip), vehicle: saline with Tween-80): 6 of 6

C/C=C/C=C/C=N/N=C(N)N
survivor count (dose: 30.0 mg/kg/injection, schedule: Q01DX Z (ip), vehicle: carboxymethylcellulose (CMC)): 2 of 6
survivor count (dose: 60.0 mg/kg/injection, schedule: Q01DX Z (ip), vehicle: carboxymethylcellulose (CMC)): 0 of 6
survivor count (dose: 120.0 mg/kg/injection, schedule: Q01DX Z (ip), vehicle: carboxymethylcellulose (CMC)): 0 of 6
survivor count (dose: 480.0 mg/kg/injection, schedule: Q01DX Z (oral), vehicle: carboxymethylcellulose (CMC)): 1 of 6
survivor count (dose: 960.0 mg/kg/injection, schedule: Q01DX Z (oral), vehicle: carboxymethylcellulose (CMC)): 0 of 6

O=[N+]([O-])c1cccc2cccc([N+](=O)[O-])c12
survivor count [7]: 6 of 6

CCn1/c(=N\N=O)sc2ccccc21
survivor count (dose: 200.0 mg/kg/injection, schedule: Q01DX001 (ip), vehicle: Klucel (hydroxypropylcellulose) (HPC)): 1 of 6
survivor count (dose: 400.0 mg/kg/injection, schedule: Q01DX001 (ip), vehicle: Klucel (hydroxypropylcellulose) (HPC)): 1 of 6

CCCCNC(=O)c1ncccc1C(=O)O
survivor count (dose: 400.0 mg/kg/injection, schedule: Q04DX003 (ip), vehicle: carboxymethylcellulose (CMC)): 3 of 6

CCOC(=O)C(Cc1ccc(N(CCCl)CCCl)cc1)NC=O (stereo not drawn)
T/C (dose: 20.0 mg/kg/injection, schedule: Q01DX Z (ip), vehicle: carboxymethylcellulose (CMC)): 138 % of control
T/C (dose: 39.0 mg/kg/injection, schedule: Q01DX001 (ip), vehicle: carboxymethylcellulose (CMC)): 125 % of control
T/C (dose: 40.0 mg/kg/injection, schedule: Q01DX001 (ip), vehicle: carboxymethylcellulose (CMC)): 127 % of control
T/C (dose: 58.0 mg/kg/injection, schedule: Q01DX001 (ip), vehicle: carboxymethylcellulose (CMC)): 131 % of control
T/C (dose: 62.0 mg/kg/injection, schedule: Q01DX001 (ip), vehicle: carboxymethylcellulose (CMC)): 125 % of control
T/C (dose: 80.0 mg/kg/injection, schedule: Q01DX Z (ip), vehicle: carboxymethylcellulose (CMC)): 125 % of control
T/C (dose: 88.0 mg/kg/injection, schedule: Q01DX001 (ip), vehicle: carboxymethylcellulose (CMC)): 142 % of control
T/C (dose: 94.0 mg/kg/injection, schedule: Q01DX001 (ip), vehicle: carboxymethylcellulose (CMC)): 125 % of control
T/C (dose: 100.0 mg/kg/injection, schedule: Q01DX001 (ip), vehicle: carboxymethylcellulose (CMC)): 140 % of control
T/C (dose: 140.0 mg/kg/injection, schedule: Q01DX001 (ip), vehicle: carboxymethylcellulose (CMC)): 131 % of control
survivor count (dose: 160.0 mg/kg/injection, schedule: Q01DX Z (ip), vehicle: carboxymethylcellulose (CMC)): 6 of 6
survivor count (dose: 320.0 mg/kg/injection, schedule: Q01DX Z (ip), vehicle: carboxymethylcellulose (CMC)): 2 of 6
survivor count (dose: 400.0 mg/kg/injection, schedule: Q01DX001 (ip), vehicle: carboxymethylcellulose (CMC)): 0 of 4
